Measurements reported in US5616562A, “Methods and compositions using substance P to promote wound healing” (priority 1994, dated 1997).
Not every detail of the peptide structures is certain; ends, links or a residue may be inferred.

Columns and labels:
[1] = system: corneal epithelial wounds; test: Corneal epithelial wound healing in galactosemic rats treated with topical SP; type: in vivo, rat; details: 25 μ/ml of SP in BSS four times daily, imaged 24, 36 and 48 hours after wounding (FIG. 16)
[2] = system: corneal wounds; test: Healing of bilateral corneal wounds in capsaicin treated rabbits given topical SP; type: in vivo, rabbit; details: SP 250 μg/ml or 500 μg/ml topically 4× daily; capsaicin treated rabbits (FIGS. 6 and 7)
[3] = system: persistent non-septic corneal epithelial defects; test: Open-label clinical trial of topical SP in canine patients with chronic non-septic corneal epithelial defects; type: in vivo, dog
Source text: This was a non-controlled open-label clinical trial conducted on canine patients seen in a specialty referral service for chronic, non-septic corneal epithelial defects. Criteria for inclusion included:
1. Absence of an identifiable underlying cause of the epithelial defect (lid abnormalities, decreased tear production etc.) on complete ophthalmic examination.
2. Persistence of the defect for at least 3 weeks.
3. Unresponsive to traditional therapy (topical broad spectrum antibiotics,some cases had received topical hyper-osmotic therapy, and 5 dogs had not healed after placement of a therapeutic soft contact bandage lens).
After obtaining informed consent from the owners, the dogs were taken into the hospital, an Elizabethan collar was placed (to keep the dog from rubbing its eye) and two drops of 500 μ/ml SP were instilled into the affected eye. The dogs were closely observed for any irritant effect of the drops. The dogs were then treated with one drop 8 times daily for duration of the trial.

[4] = system: epithelial cells from lens; test: SP stimulation of DNA synthesis in lens epithelial cells arrested in G1/Go in serum free media; type: cell-based
[5] = system: epithelial cells from cornea; test: SP stimulation of DNA synthesis in corneal epithelial cells arrested in G1/Go in serum free media; type: cell-based

Question: For `CSCC[C@H](NC(=O)[C@H](CC(C)C)NC(=O)CNC(=O)[C@H](Cc1ccccc1)NC(=O)[C@H](Cc1ccccc1)NC(=O)[C@H](CCC(N)=O)NC(=O)[C@H](CCC(N)=O)NC(=O)[C@@H]1CCCN1C(=O)[C@H](CCCCN)NC(=O)[C@@H]1CCCN1C(=O)[C@@H](N)CCCNC(=N)N)C(N)=O` [SP, Substance P], which “corneal epithelial wound healing vs BSS-treated fellow eye” value [1] is on record?
Answer: significantly (p<0.05) accelerate

Question: And the “healing of corneal wounds vs vehicle-treated fellow eye” value [2]?
Answer: accelerated the healing process

Question: And the “time to complete resolution of the defect” value ([3]; 10 year old golden retriever, defect persistent for 60 days (FIG. 14))?
Answer: ≤ 2 weeks

Question: What about the “dogs with resolution of the epithelial defect” value ([3]; 500 μ/ml SP, one drop 8 times daily, within 2 weeks) of the same molecule?
Answer: 9 out of 10

Question: And the “comfort level noted by owners” value ([3]; within 24 hours of the initiation of therapy)?
Answer: increased comfort level

Question: And the “stimulation of DNA synthesis” value ([4]; SP by itself, lens epithelial cells, serum free media (FIG. 2))?
Answer: weakly stimulatory

Question: And the “stimulation of DNA synthesis” value ([4]; SP combined with insulin, lens epithelial cells (FIG. 2))?
Answer: strongly stimulatory

Question: And the “stimulation of DNA synthesis” value ([5]; SP by itself, corneal epithelial cells, serum free media (FIG. 1))?
Answer: weakly stimulatory

Question: And the “stimulation of DNA synthesis” value ([5]; SP combined with insulin, corneal epithelial cells (FIG. 1))?
Answer: strongly stimulatory
